# From the supplement of paper PMC12823440, “Inhibitors supercharge kinase turnover through native proteolytic circuits” (Nature, 2025)
# The chains behind the UniProt entries cited, without tags or fusion partners. Where a name states a change or a piece, a line headed by the entry shows the natural chain unless it says otherwise.
# UniProt Q6PHR2: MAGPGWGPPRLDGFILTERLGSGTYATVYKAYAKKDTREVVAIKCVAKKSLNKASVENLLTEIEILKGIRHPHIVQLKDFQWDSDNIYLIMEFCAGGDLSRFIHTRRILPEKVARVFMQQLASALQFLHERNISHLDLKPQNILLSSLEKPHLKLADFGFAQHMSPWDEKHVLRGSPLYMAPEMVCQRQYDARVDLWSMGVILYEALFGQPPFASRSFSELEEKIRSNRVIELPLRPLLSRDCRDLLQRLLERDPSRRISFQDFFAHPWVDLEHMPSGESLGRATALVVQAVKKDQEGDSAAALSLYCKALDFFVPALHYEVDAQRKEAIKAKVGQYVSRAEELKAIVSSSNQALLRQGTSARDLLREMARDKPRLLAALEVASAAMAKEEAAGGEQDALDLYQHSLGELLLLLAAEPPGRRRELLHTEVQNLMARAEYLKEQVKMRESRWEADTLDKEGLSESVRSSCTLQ
# The other results are listed elsewhere or left out. Hit calls seldom repeat between salt and free forms of one compound.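 Kinases, fused to nanoluciferase, were expressed in K562 cells; luminescence was measured every 4 h from 2 to 18 h as percent of control (DMSO = 100%, positive control = 0%). A time point is decreased if signal falls significantly (2 sigma). Hits were called by the authors by a rule that is not shown; the count of time points alone does not decide it.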
# Target: ULK3 (UniProt Q6PHR2)
# Assay: number of time points (of 5) at which kinase-Nluc abundance scored as decreased, DMSO-normalised (count); higher = more persistent destabilization
# Conditions: K562; 2-18 h
row,SMILES,number of time points
1,C[C@H]1Cc2ccccc2N1C(=O)Cc1nc(N2CCOCC2)cc(=O)[nH]1 (2.5 µM),0
2,CC(C)c1cc(/C=C(\C#N)C(N)=O)cc(C(C)C)c1O (10 µM),0
3,COc1c(C)c(C(=O)c2ccc(N)c(C(=O)O)c2)n2ccccc12 (10 µM),0
4,C[C@@H]1CCc2ncc(F)cc2[C@H]2CCCN2c2ccn3ncc(c3n2)C(=O)N1 [Selitrectinib] (10 µM),0
5,CCN(C)C(=O)c1ccc2c(C(=Nc3ccc(CN4CCCCC4)cc3)c3ccccc3)c(O)[nH]c2c1 (2.5 µM),0
6,O=C(CO)N1CCC(c2n[nH]c(-c3ccc(Cl)cc3)c2-c2ccncn2)CC1 (10 µM),0
7,C[C@@H]1COCCN1c1cc(C2([S@](C)(=N)=O)CC2)nc(-c2cc[nH]c3nccc2-3)n1 [Ceralasertib] (2.5 µM),0
8,CCOC(=O)c1c2c3c(cccc3[nH]c1=O)C(=O)c1ccccc1-2 (10 µM),0
9,O=C(c1ccc(Nc2nccc(-c3cc4ccccc4s3)n2)cc1)N1CCC(N2CCCC2)CC1 (2.5 µM),0
10,Cc1ccc(-c2nn(C(C)(C)CNC(=O)c3ccncc3)c3ncnc(N)c23)cc1 (2.5 µM),0
11,O=C(O)c1ccc(-c2c[nH]c3ncc(-c4ccccc4)cc23)cc1C1CCCC1 (2.5 µM),0
12,CCOc1nc(Nc2ccc(C(=O)N3CCOCC3)cc2OC)nc2[nH]ccc12 [LRRK2 inhibitor 1] (2.5 µM),0
13,CN(CC(=O)N(Cc1ccc(C2CCCCC2)cc1)c1ccc(C(=O)O)c(O)c1)S(=O)(=O)c1c(F)c(F)c(F)c(F)c1F (2.5 µM),0

# Another view of part of the listing above.
row | SMILES | number of time points
1 | C[C@H]1Cc2ccccc2N1C(=O)Cc1nc(N2CCOCC2)cc(=O)[nH]1 (2.5 µM) | 0
10 | Cc1ccc(-c2nn(C(C)(C)CNC(=O)c3ccncc3)c3ncnc(N)c23)cc1 (2.5 µM) | 0
